These are yes or no findings as the source states them, for the method shown. Some entries that bind do so weakly or less than the wild type.

Amino acid sequences for entries named in this document (tags omitted). A change or cut given only in a name is not applied to a line headed by its entry. Chains listed by the source or under a name are the forms on record and can include a tag or linker.
recombinant human VEGF 165 (P15692, form named): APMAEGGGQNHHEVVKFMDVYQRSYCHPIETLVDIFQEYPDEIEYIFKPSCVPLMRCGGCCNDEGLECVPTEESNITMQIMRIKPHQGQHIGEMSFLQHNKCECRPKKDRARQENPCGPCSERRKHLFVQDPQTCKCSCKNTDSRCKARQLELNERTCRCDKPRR

The assay addresses recombinant human VEGF 165 (human) (UniProt P15692). Nature of the assay: competition ELISA, VEGFR-2 on coated VEGF 165. On the technique in general: ELISA stands for enzyme-linked immunosorbent assay.

B1: aflibercept peptide (positive control) (protein)
chain: SDTGRPFVEMYSEIPEIIHMTEGRELVIPCRVTSPNITVTLKKFPLDTLIPDGKRIIWDSRKGFIISNATYKEIGLLTCEATVNGHLYKTNYLTHRQTNTIIDVVLSPSHGIELSVGEKLVLNCTARTELNVGIDFNWEYPSSKHQHKKLVNRDLKTQSGSEMKKFLSTLTIDGVTRSDQGLYTCAASSGLMTKKNSTFVRVHEK
As for B1, the binding entry was “binds”.

These data come from US20200002439A1.
